Laboratory results published in the supplement of paper PMC8256030.
Where “and” joins values, the source holds several entries; their conditions need not be identical. Equal values may be shown once. Some of the results follow. Single values are uncertain here, since repeats match poorly.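 HEK293T cells were given each compound shortly before transfection with a reporter in which red mCherry is followed by the SARS-CoV-2 frameshift element and then GFP in the −1 frame, so GFP appears only after frameshifting.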

The molecules below were run on SARS-CoV-2 -1 PRF reporter mCherry-FSE-GFP(-1) (assay: percent effect, decrease of GFP/mCherry ratio (-1 PRF reporter) relative to controls; higher = stronger frameshift inhibition). Settings: 10 µM; 24 h; HEK293T.

SMILES	percent effect
O=c1[nH]c2ccccc2n1CCN1CCN(c2cccc(C(F)(F)F)c2)CC1 [flibanserin]	-7.07%
Nc1cc(Cl)c(N=C2NCCN2)c(Cl)c1 [apraclonidine]	-8.38%
CC(=O)OCC(=O)[C@@]12N=C(C)O[C@@H]1C[C@H]1[C@@H]3CCC4=CC(=O)C=C[C@]4(C)[C@H]3[C@@H](O)C[C@@]12C [deflazacort]	-4.66%
Cc1cnc(NC(=O)C2=C(O)c3ccccc3S(=O)(=O)N2C)s1	-0.0806%
CCN(CC)CCNC(=O)c1cc(Br)c(N)cc1OC [Bromopride]	-0.821%
CCCc1nc(C(C)(C)O)c(C(=O)O)n1Cc1ccc(-c2ccccc2-c2nnn[nH]2)cc1 [olmesartan]	0.825% and 0.592%
CC(Oc1ccccc1)C(=O)N[C@@H]1C(=O)N2[C@@H]1SC(C)(C)[C@@H]2C(=O)O (stereo not given in full)	0.724%
C[C@]12CCC(=O)C=C1CC[C@@H]1[C@@H]2[C@@H](O)C[C@]2(C=O)[C@@H](C(=O)CO)CC[C@@H]12 [aldosterone]	-5.85%
CCN(CC)CCNC(=O)c1ccccc1O [saletamide]	-2.94%
OCCOCCN1CCN(C(c2ccccc2)c2ccc(Cl)cc2)CC1 (stereo not given) [hydroxyzine]	-3.33% and -3.93%
CC1(C)S[C@@H]2[C@H](NC(=O)C(C(=O)Oc3ccc4c(c3)CCC4)c3ccccc3)C(=O)N2[C@H]1C(=O)O (stereo not given in full) [carindacillin]	0.953%
C[C@@H](O)[C@@H]1NC(=O)[C@H](CCCCN)NC(=O)[C@@H](Cc2c[nH]c3ccccc23)NC(=O)[C@H](Cc2ccccc2)NC(=O)[C@@H](NC(=O)[C@H](N)Cc2ccccc2)CSSC[C@@H](C(=O)N[C@H](CO)[C@@H](C)O)NC1=O [Sandostatin]	-2.26%
CC(=O)OCC(=O)[C@@]1(O)[C@@H](C)C[C@H]2[C@@H]3CCC4=CC(=O)C=C[C@]4(C)[C@@]3(F)[C@@H](O)C[C@@]21C	-2.12%
C#CC1(O)CC[C@H]2[C@@H]3CCC4=CC(=O)CC[C@@H]4[C@H]3CC[C@@]21CC (stereo not given in full) [norgestrel]	-2.29%
CN(C)[C@@H]1C(=O)C(C(N)=O)=C(O)[C@@]2(O)C(=O)C3=C(O)c4c(O)ccc([N+](=O)[O-])c4C[C@H]3C[C@@H]12 [nitrocycline]	-0.715%
CCCCCCCCNC(C)C(O)c1ccc(SC(C)C)cc1 (stereo not given)	-0.0771%
CO[C@@H]1[C@@H](O[C@@H]2O[C@H](C)[C@@H](O[C@H]3C[C@@](C)(O)[C@@H](OC(=O)CC(C)C)[C@H](C)O3)[C@H](N(C)C)[C@H]2O)[C@@H](CC=O)C[C@@H](C)[C@@H](O)/C=C/C=C/C[C@@H](C)OC(=O)C[C@H]1OC(C)=O [Josacine]	-2.44%
OC[C@H]1O[C@H](O[C@]2(CCl)O[C@H](CCl)[C@@H](O)[C@@H]2O)[C@H](O)[C@@H](O)[C@H]1Cl	1.43%
CCN(CC)C(=O)c1ccc(O)c(OC)c1 [etamivan]	-0.143%
CC(=O)c1ccc2c(c1)N(CCCN(C)C)c1ccccc1S2	-3.27%

Quoted at random: two records from the list
SMILES	percent effect
CC(=O)OCC(=O)[C@@]1(O)[C@@H](C)C[C@H]2[C@@H]3CCC4=CC(=O)C=C[C@]4(C)[C@@]3(F)[C@@H](O)C[C@@]21C	-2.12%
CN(C)[C@@H]1C(=O)C(C(N)=O)=C(O)[C@@]2(O)C(=O)C3=C(O)c4c(O)ccc([N+](=O)[O-])c4C[C@H]3C[C@@H]12 [nitrocycline]	-0.715%

(continued)

SMILES	percent effect
Cn1cc([S+](C)[O-])c(=O)c2ccc(F)cc21 (stereo not given) [flosequinan]	-6.63%
CCC[C@@H]1C[C@@H](C(=O)N[C@@H]([C@H]2O[C@H](SC)[C@H](O)[C@@H](O)[C@H]2O)[C@@H](C)O)N(C)C1 [Lincomycin]	0.559%
COC(=O)Nc1nc2cc(C(=O)c3cccs3)ccc2[nH]1 [nocodazole]	-12.5%
CCOCCn1cc(C(=O)Nc2ccc(-n3nc(-c4cccnc4)cc3C(F)(F)F)cn2)ccc1=O	-3.48%
COc1ccc(CNc2nc(N3CCC[C@H]3CO)ncc2C(=O)NCc2ncccn2)cc1Cl [avanafil]	-5.49%
CCN(CC)CC(=O)Nc1c(C)cccc1C(=O)OC [tolycaine]	-3.84%
O=C(NN1CCCCCC1)NS(=O)(=O)c1ccc(Cl)cc1 [glypinamide]	-0.896%
Nc1ncnc(Nc2ccc(Cl)cc2)n1	-0.823%
CC(=O)Oc1cc(C(F)(F)F)ccc1C(=O)O [triflusal]	-0.0559%
C[C@@H](O)[C@H]1C(=O)N2C(C(=O)O)=C(S[C@@H]3CN[C@H](CNS(N)(=O)=O)C3)[C@H](C)[C@H]12 [doripenem]	-1.71%
O=C1CC[C@@H](C(=O)Oc2ccc(O)cc2)N1 [pidobenzone]	-1.61%
O=C(OC1C[C@@H]2CC3C[C@H](C1)N2CC3=O)c1c[nH]c2ccccc12 (stereo not given in full) [Dolasteron]	-9.73%
NCC(O)CC(=O)O (stereo not given)	-0.894%
Cc1cc(-n2nc3ccc(Cl)cc3n2)c(O)c(C(C)(C)C)c1 [bumetrizole]	-2.61%
CS(=O)(=O)c1ccc([C@H](O)[C@@H](COC(=O)CN)NC(=O)C(Cl)Cl)cc1 [Thiamphenicol glycinate]	-3.13%
O=C(N[C@H](CO)[C@H](O)c1ccc([N+](=O)[O-])cc1)C(Cl)Cl [chloramphenicol]	1.56% and -6.29%
C[N+](C)(C)[C@@H](Cc1c[nH]c(=S)[nH]1)C(=O)[O-] [Ergothioneine]	2.4%
S=C1SCN(Cc2ccccc2)CN1Cc1ccccc1	-2.13%
CCCCOc1cc(C(=O)NCCN(CC)CC)c2ccccc2n1 [cinchocaine]	-0.179%
COc1cc(N)c(Cl)cc1C(=O)NC1CCN(CCCOc2ccc(F)cc2)CC1OC (stereo not given) [cisapride]	-2.92%
